No constants are given. Whether binding was seen depends on the method and setting. In cells and extracts the contact can be indirect. These calls come from enrichment with a bait or labelling near it, and not all partners need be listed.
What follows are substances tested against Flag tagged E. histolytica COP9 signalosome subunit 2 (Flag-CSN2) (E. histolytica) (UniProt C4LZL4) (assay: affinity purification with mass spectrometry; lysate of E. histolytica expressing Flag-CSN2 incubated with rabbit anti-Flag magnetic agarose overnight at 4°C, eluted with 1.5 mg/mL 3X Flag peptide; label-free quantification against the vector control).

Sequences of proteins named here, by UniProt entry; tags and fusion partners are left off. A change or cut given only in a name is not applied to a line headed by its entry.
UniProt C4LZL4: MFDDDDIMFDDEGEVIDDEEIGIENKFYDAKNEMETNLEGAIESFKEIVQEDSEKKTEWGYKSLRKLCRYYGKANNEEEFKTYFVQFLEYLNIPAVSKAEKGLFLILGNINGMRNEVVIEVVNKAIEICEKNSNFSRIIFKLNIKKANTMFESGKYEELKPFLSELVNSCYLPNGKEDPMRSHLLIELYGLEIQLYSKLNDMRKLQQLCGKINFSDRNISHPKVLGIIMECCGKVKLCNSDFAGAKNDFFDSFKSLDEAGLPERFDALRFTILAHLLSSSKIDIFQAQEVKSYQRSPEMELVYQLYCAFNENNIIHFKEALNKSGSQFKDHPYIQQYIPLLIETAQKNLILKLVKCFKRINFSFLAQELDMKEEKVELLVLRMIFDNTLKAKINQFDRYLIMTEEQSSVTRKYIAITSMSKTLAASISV
UniProt C4LVK0: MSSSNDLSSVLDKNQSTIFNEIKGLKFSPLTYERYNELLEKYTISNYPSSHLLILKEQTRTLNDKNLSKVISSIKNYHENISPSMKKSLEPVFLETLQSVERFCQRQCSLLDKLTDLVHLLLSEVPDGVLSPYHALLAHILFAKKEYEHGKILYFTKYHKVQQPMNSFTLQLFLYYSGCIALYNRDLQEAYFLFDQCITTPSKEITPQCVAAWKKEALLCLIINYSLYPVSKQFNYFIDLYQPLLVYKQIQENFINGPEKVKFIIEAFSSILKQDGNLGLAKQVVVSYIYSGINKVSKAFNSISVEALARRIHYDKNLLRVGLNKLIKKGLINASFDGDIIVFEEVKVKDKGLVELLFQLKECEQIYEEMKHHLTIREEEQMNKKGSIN
UniProt Q8WQ58: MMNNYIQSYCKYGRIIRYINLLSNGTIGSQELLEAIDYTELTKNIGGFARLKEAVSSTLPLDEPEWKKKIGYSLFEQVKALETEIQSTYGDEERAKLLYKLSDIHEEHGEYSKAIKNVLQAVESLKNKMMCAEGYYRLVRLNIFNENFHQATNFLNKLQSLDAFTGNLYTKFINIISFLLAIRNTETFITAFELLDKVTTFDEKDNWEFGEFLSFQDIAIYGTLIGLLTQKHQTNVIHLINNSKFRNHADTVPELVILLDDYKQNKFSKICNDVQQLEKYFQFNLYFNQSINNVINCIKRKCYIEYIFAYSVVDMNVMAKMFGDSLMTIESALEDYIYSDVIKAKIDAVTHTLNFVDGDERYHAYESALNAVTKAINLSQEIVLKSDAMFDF
UniProt C4LU38: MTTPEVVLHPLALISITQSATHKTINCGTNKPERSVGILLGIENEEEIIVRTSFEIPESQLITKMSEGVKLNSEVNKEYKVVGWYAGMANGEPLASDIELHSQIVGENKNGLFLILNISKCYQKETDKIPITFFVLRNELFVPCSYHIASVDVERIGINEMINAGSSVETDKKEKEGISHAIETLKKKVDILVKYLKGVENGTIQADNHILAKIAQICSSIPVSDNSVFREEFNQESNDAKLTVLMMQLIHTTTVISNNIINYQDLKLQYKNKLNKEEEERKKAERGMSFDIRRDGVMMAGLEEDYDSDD

binding, binds:
E. histolytica COP9 signalosome subunit 3 (CSN3) (from UniProt C4LVK0), E. histolytica COP9 signalosome subunit 1 (CSN1) (from UniProt Q8WQ58), E. histolytica COP9 signalosome subunit 6 (CSN6) (from UniProt C4LU38)

Source: paper PMC7531848
